From patent US20040254139 come the findings set out here.

Chains of the proteins cited; added tags and fusions are not shown. Residues count along the entry.
UniProt P01375, 77-233: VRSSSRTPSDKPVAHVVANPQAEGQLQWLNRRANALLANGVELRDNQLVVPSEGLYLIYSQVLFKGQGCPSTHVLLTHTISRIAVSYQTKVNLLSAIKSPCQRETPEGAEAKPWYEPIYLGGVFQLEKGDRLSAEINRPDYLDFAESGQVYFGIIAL

The exact form of at least one protein or probe is not confirmed.

The data set has as its target TNF-alpha (tumor necrosis factor alpha) (Homo sapiens) (UniProt P01375). Description: ELONA. The following applies: 37 C; label: 5'-biotin; single-stranded DNA.

Regarding “ATGGCGCAGTCGGCGACAATCACTTTGGTTACTATTGGCC [DNA aptamer 5]”, the binding result is listed as “binds”. As for “CACTGTAATCAGAGGCTTTTTTACTCTCGCTGCATTCCGG [DNA aptamer 8]”, the entry is “binds”. For the sequence “CACTGTTTGACGTTTCGGATTAAGGAGTCCGCTCGCACCC [DNA aptamer 14]”, the binding result was “binds”. The value for “CCACGTCTACACTTACCCCTGTGACAGCTATACTCATCAC [DNA aptamer 12]” was “binds”; that for “CCCCGCCATGTGCTTAGTGCAATAACGTTCTCACCGCCCC [DNA aptamer 13]” was “binds”; that for “CCGACGTACTCGGTAGACAAGTCCCCTGAAGTGTGACGCC [DNA aptamer 17]” was “binds”. As to “CGATCTACGTGGTGACTCATACGTGTCGATGTGCCTTTCC [DNA aptamer 3]”, the binding result is on record as “binds”. As for “CGCGCGTAAATCTTCTTCTGTTACCCTCTCTTCATGTCGC [DNA aptamer 1]”, the entry is “binds”. As for “CGCTGGAGGACGATGTTAATTAGACCGCAACTACATTGCA [DNA aptamer 2]”, the entry is “binds”; as for “CGGTGTCCCGGCACTTTGATCGTCGACCTGTTGTATTGCC [DNA aptamer 6]”, “binds”; as for “GCACACTAAGTTTCTACACGTCTCGTCGCCCTCTTTGTGC [DNA aptamer 4]”, “binds”. The value for “GCCCAGCGTCCGACACTAACTAGTCGCCAAACAATCAGCC [DNA aptamer 9]” was “binds”; that for “GCGGCCGATAAGGTCTTTCCAAGCGAACGAATTGAACCGC [DNA aptamer 18]” was “binds”; that for “GGCGGGGTCTCTAAAGTGTGTTATCATCTGCTTGTTGGCC [DNA aptamer 7]” was “binds”. For the sequence “TCCCATCAAAACCAAATTTCGGGTCTGCTCTCTCTCTGCC [DNA aptamer 15]”, the binding result is “binds”.

As to “TGCACACCGGTGATTTAGCCTGGCGTGCTTCACCTTCACC [DNA aptamer 11]”, the binding result was “binds”. Turning to “TGGCGAGTATACTCACAAACCTCTCACAGGAACCTGGGGC [DNA aptamer 10]”, the binding result was “binds”. The value for “TGGGGATGCGGTCTGCCTAACAACAGGGCTTCACTTACCC [DNA aptamer 16]” was “binds”.
